PubChem BioAssay AID1053208 – Peter MacCallum Cancer Centre, 2014
The deposit covers about 17,000 reagents; below is a random part of them. 788 of all reagents (4.7%) count as active. 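Calls rest on z-score classes alone; an extra cut-off of viability at most 70% of control was not applied to them.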 Reagents against one gene are numbered here. Not all columns of the deposit are shown. No sequences are given here.

Assay: 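Genes whose silencing cuts survival of bone tumour cells only with doxorubicin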 (primary screen)
Cell system: mouse osteosarcoma cells, early-passage culture from an engineered mouse model of fibroblastic bone tumour
Knock-down reagent: siRNA pool against mouse genes, 40 nM
Duration: about 120 h (48 h before drug, then 72 h with drug)
Treatment: doxorubicin 100 nM for 72 h, roughly 30-40% inhibitory dose
Read-out: 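Viability read as ATP luminescence after 72 h of 100 nM doxorubicin or none, duplicate wells averaged, scaled to non-targeting siRNA, then expressed as robust z-scores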
Scale: viability z-score with doxorubicin: higher = more viable cells under doxorubicin; viability z-score without drug: higher = more viable cells with knock-down alone
Rule for the call: 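Called active if knock-down leaves viability unchanged without drug (z within -2 to 2) but lowers it with doxorubicin (z at or under -2)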

| combined z-score class | viability z-score with doxorubicin | viability z-score without drug | Call | target gene | pool no. |
| --- | --- | --- | --- | --- | --- |
| no change with or without drug | -1.91 | -0.84 | inactive | Itm2c (integral membrane protein 2C) | 1 |
| no change with or without drug | -1.8 | -0.51 | inactive | Lamtor1 (late endosomal/lysosomal adaptor, MAPK and MTOR activator 1) | 1 |
| no change with or without drug | 1.35 | 0.17 | inactive | Vegfa (vascular endothelial growth factor A) | 1 |
| no change with or without drug | -0.11 | -0.51 | inactive | Or4k40 (olfactory receptor family 4 subfamily K member 40) | 1 |
| no change with or without drug | 0.22 | -0.84 | inactive | Arl10 (ADP-ribosylation factor-like 10) | 1 |
| low cell count without drug only | 1.57 | -6.74 | inactive | Adcy2 (adenylate cyclase 2) | 1 |
| high cell count with doxorubicin only | 2.36 | 0.51 | inactive | Sox1 (SRY (sex determining region Y)-box 1) | 1 |
| low cell count without drug only | -0.67 | -2.53 | inactive | Cdkn3 (cyclin dependent kinase inhibitor 3) | 1 |
| no change with or without drug | -0.22 | -0.51 | inactive | Gtpbp8 (GTP-binding protein 8 (putative)) | 1 |
| no change with or without drug | 0.67 | -1.01 | inactive | Tmem37 (transmembrane protein 37) | 1 |
| no change with or without drug | -0.45 | 0.17 | inactive | Epha10 (Eph receptor A10) | 1 |
| no change with or without drug | -0.22 | 0.67 | inactive | Fbxl20 (F-box and leucine-rich repeat protein 20) | 1 |
| no change with or without drug | 0 | -0.51 | inactive | Fbxl20 (F-box and leucine-rich repeat protein 20) | 2 |
| no change with or without drug | -0.22 | -1.52 | inactive | Hyal2 (hyaluronoglucosaminidase 2) | 1 |
| no change with or without drug | 0 | -0.17 | inactive | Tnni1 (troponin I, skeletal, slow 1) | 1 |
| no change with or without drug | -1.24 | -0.51 | inactive | Slc35b1 | 1 |
| low cell count with doxorubicin only | -2.36 | -1.18 | active | Slc7a10 | 1 |
| no change with or without drug | -0.45 | -0.67 | inactive | Myl7 (myosin, light polypeptide 7, regulatory) | 1 |
| no change with or without drug | -0.67 | -1.01 | inactive | Hk3 (hexokinase 3) | 1 |
| no change with or without drug | -0.34 | -0.67 | inactive | Brd8 (bromodomain containing 8) | 1 |
| no change with or without drug | 0.22 | 0.17 | inactive | Jpt1 (Jupiter microtubule associated homolog 1) | 1 |
| no change with or without drug | 1.12 | 0.34 | inactive | Git1 (GIT ArfGAP 1) | 1 |
| no change with or without drug | 0 | 0.67 | inactive | Bmp10 (bone morphogenetic protein 10) | 1 |
| no change with or without drug | 0.45 | 1.69 | inactive | Zkscan3 (zinc finger with KRAB and SCAN domains 3) | 1 |
| no change with or without drug | -1.01 | -0.17 | inactive | Tmem203 (transmembrane protein 203) | 1 |

Sorted by “viability z-score with doxorubicin” (low to high): 2 of the entries above.
| combined z-score class | viability z-score with doxorubicin | viability z-score without drug | Call | target gene | pool no. |
| --- | --- | --- | --- | --- | --- |
| no change with or without drug | -0.45 | 0.17 | inactive | Epha10 (Eph receptor A10) | 1 |
| no change with or without drug | 0.67 | -1.01 | inactive | Tmem37 (transmembrane protein 37) | 1 |

Further reagents:
| combined z-score class | viability z-score with doxorubicin | viability z-score without drug | Call | target gene | pool no. |
| --- | --- | --- | --- | --- | --- |
| high cell count without drug only | 0.67 | 2.19 | inactive | Reep5 (receptor accessory protein 5) | 1 |
| low cell count with doxorubicin only | -2.92 | -1.18 | active | Pcdhgb2 (protocadherin gamma subfamily B, 2) | 1 |
| no change with or without drug | 0.11 | 1.18 | inactive | Calhm6 (calcium homeostasis modulator family member 6) | 1 |
| no change with or without drug | -1.35 | -0.84 | inactive | Soat1 (sterol O-acyltransferase 1) | 1 |
| no change with or without drug | 0.34 | -0.17 | inactive | Gatad2b (GATA zinc finger domain containing 2B) | 1 |
| no change with or without drug | -1.57 | -1.35 | inactive | Slc1a2 | 1 |
| no change with or without drug | -1.57 | 0.17 | inactive | Cmah (cytidine monophospho-N-acetylneuraminic acid hydroxylase) | 1 |
| low cell count with and without drug | -5.62 | -5.06 | inactive | Rps12 (ribosomal protein S12) | 1 |
| no change with or without drug | -1.35 | -1.52 | inactive | Kcnu1 (potassium channel, subfamily U, member 1) | 1 |
| no change with or without drug | 1.12 | 0.84 | inactive | Ddx1 (DEAD box helicase 1) | 1 |
| no change with or without drug | -0.45 | 1.52 | inactive | Pofut3 (protein O-fucosyltransferase 3) | 1 |
| no change with or without drug | -0.22 | -0.84 | inactive | Sap130 (Sin3A associated protein 130) | 1 |
| no change with or without drug | -1.01 | -0.84 | inactive | Igfbp6 (insulin-like growth factor binding protein 6) | 1 |
| no change with or without drug | -0.9 | 0.51 | inactive | Ptpn6 (protein tyrosine phosphatase, non-receptor type 6) | 1 |
| no change with or without drug | 0.11 | 1.52 | inactive | Dkk4 (dickkopf WNT signaling pathway inhibitor 4) | 1 |
| no change with or without drug | 1.35 | -0.17 | inactive | Epc2 (enhancer of polycomb homolog 2) | 1 |
| no change with or without drug | 0.11 | 0.34 | inactive | Nrcam (neuronal cell adhesion molecule) | 1 |
| no change with or without drug | -0.67 | -1.52 | inactive | Ipo11 (importin 11) | 1 |
| low cell count with doxorubicin only | -5.28 | -0.34 | active | Vps28 (vacuolar protein sorting 28) | 1 |
| no change with or without drug | -0.22 | -0.51 | inactive | Ocstamp (osteoclast stimulatory transmembrane protein) | 1 |
| no change with or without drug | 0.22 | -1.18 | inactive | Slc25a37 | 1 |
| no change with or without drug | -1.57 | -1.18 | inactive | Itgb6 (integrin beta 6) | 1 |
| no change with or without drug | 1.24 | -0.84 | inactive | Hsf3 (heat shock transcription factor 3) | 1 |
| no change with or without drug | 1.57 | 0.17 | inactive | Ctnnbip1 (catenin beta interacting protein 1) | 1 |
| no change with or without drug | -0.67 | -0.51 | inactive | Camk1d (calcium/calmodulin-dependent protein kinase ID) | 1 |
